No constants are given. Whether binding was seen depends on the method and setting. In cells and extracts the contact can be indirect. A result given as binding can be weak or reduced; the word gives no strength. Sequences can lack the tags named with a protein.
Assays:
[1] = biological target: T1, Myc-tagged mouse DUSP8 (mouse) (UniProt O09112); assay: co-IP; Myc-tagged DUSP8 with Flag-tagged Pur-α in lysates of HEK293T transfectants
T1 sequence: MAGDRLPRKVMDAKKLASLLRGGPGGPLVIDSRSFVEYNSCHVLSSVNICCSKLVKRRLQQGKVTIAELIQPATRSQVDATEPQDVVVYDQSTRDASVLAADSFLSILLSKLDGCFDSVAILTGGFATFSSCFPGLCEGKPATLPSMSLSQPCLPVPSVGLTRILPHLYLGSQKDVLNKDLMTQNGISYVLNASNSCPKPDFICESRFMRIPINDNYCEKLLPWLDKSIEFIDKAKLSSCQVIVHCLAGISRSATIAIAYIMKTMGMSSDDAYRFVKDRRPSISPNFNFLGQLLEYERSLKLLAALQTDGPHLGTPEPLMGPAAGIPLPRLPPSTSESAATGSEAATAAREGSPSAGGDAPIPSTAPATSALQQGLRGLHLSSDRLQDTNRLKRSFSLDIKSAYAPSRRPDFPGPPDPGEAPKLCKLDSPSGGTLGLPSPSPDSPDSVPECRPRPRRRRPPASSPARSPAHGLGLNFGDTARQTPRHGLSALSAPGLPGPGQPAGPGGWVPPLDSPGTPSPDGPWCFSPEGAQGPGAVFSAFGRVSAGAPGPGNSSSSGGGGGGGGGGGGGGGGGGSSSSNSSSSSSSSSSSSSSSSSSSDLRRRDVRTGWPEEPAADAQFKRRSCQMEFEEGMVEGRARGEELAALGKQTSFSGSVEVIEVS

[2] = biological target: T2, YFP-fused DUSP8 (mouse) (UniProt O09112); assay: FRET or BRET; FRET in HEK293T cells transfected with CFP-fused Pur-α and YFP-fused DUSP8; detects interaction < 10 nm
T2 sequence: T1 sequence

binding [1]	binding [2]	Substance
binds	–	3xFlag-tagged human Pur-α
–	binds	CFP-fused Pur-α (human)

From paper PMC10617771
